Measurements as given in the supplement of paper PMC6411743.
± gives the standard deviation of the averaged measurements. This is one part of the list.

Amino acid sequences for entries named in this document (tags omitted). A change or cut given only in a name is not applied to a line headed by its entry.
UniProt Q96T76: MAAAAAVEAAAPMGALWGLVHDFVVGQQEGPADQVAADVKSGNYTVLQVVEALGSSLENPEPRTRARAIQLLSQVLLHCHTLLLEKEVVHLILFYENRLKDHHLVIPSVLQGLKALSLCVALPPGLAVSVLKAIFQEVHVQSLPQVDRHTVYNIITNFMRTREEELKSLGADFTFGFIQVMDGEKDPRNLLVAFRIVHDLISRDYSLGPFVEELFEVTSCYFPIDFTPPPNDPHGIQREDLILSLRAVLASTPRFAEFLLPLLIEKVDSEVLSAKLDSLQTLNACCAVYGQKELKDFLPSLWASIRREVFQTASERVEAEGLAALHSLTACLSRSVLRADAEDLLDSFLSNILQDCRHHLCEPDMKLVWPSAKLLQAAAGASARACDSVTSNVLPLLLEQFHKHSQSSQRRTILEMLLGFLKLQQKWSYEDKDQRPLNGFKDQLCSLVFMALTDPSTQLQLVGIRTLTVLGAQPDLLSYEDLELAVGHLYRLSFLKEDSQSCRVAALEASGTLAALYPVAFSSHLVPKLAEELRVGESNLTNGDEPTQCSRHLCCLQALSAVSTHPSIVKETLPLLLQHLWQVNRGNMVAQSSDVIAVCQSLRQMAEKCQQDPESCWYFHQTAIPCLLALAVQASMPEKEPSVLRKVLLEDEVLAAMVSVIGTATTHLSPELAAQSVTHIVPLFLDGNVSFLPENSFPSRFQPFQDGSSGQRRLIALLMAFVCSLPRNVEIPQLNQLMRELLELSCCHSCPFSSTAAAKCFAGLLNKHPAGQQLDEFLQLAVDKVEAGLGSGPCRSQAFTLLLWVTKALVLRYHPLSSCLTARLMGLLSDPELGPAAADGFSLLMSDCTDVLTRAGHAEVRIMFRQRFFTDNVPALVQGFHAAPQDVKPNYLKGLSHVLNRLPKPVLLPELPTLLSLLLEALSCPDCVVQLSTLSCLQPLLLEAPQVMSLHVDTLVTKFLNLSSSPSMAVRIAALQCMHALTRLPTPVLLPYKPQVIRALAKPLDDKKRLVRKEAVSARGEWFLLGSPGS
UniProt Q9BV19: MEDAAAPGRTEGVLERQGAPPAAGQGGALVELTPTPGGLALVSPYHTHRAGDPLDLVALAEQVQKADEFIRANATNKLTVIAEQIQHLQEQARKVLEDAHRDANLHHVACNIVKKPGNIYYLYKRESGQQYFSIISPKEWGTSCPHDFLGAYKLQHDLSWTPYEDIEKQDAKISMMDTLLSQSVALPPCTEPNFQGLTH
UniProt Q9BVP2: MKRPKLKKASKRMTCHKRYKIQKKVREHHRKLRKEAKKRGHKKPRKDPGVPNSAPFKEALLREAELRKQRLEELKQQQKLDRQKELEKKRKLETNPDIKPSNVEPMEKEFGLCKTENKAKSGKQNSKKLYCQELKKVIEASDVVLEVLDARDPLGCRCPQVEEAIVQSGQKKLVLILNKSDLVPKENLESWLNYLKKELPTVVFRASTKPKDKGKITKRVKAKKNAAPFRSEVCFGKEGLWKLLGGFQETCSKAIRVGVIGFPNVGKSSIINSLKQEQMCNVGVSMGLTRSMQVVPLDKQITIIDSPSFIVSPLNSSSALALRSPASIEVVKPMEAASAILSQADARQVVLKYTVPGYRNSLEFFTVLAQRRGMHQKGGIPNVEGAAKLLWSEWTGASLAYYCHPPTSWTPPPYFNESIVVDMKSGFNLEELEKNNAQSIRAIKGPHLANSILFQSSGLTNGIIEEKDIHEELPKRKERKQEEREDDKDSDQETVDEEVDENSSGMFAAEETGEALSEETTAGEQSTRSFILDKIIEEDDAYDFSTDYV
UniProt Q9BXJ9: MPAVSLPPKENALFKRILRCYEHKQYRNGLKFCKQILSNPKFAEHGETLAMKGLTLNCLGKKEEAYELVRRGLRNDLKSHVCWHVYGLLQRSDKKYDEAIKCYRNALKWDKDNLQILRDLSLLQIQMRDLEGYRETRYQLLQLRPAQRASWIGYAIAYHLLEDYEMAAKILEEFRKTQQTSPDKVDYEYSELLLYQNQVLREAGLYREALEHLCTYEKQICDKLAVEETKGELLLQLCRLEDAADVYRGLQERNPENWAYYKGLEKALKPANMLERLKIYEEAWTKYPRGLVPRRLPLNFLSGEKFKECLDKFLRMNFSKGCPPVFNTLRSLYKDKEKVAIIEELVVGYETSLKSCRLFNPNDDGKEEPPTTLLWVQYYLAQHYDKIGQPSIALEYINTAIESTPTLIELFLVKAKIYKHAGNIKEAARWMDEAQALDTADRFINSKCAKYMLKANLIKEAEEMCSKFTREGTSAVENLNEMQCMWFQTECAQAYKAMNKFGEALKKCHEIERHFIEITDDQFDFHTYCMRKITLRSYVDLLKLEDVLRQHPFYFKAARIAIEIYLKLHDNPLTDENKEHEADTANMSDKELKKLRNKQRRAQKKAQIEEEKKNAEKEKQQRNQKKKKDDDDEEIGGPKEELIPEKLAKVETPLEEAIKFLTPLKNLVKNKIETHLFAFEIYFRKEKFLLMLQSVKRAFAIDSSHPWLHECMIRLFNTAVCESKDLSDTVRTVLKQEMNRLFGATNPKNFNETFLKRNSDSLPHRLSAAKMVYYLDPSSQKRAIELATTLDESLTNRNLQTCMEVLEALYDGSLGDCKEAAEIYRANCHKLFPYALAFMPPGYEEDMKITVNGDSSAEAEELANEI
UniProt Q9BRS2: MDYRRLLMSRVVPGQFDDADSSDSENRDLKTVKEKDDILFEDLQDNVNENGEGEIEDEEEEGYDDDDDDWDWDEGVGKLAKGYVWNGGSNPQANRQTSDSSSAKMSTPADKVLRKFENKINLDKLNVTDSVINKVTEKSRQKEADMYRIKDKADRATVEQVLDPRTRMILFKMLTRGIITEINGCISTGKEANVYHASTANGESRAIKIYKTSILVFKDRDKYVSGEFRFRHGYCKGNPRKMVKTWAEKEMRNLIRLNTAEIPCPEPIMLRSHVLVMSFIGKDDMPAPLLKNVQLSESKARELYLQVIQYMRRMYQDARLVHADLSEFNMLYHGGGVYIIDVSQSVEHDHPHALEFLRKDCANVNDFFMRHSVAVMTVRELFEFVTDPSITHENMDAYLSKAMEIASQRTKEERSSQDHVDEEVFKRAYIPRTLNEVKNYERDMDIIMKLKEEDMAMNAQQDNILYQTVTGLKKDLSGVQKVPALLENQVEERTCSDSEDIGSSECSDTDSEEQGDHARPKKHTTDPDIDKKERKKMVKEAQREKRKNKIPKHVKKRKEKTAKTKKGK
UniProt Q9BSL1: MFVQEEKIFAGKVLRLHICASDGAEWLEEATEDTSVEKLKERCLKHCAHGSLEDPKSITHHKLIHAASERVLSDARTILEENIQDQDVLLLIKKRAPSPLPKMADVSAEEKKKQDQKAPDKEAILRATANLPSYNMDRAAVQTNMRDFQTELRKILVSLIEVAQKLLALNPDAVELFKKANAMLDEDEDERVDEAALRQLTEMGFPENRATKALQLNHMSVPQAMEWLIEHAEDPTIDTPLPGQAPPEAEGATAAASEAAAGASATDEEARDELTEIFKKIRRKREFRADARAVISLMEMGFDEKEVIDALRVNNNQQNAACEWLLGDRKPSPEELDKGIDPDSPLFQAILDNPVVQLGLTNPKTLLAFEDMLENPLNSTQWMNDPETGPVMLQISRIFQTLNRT
UniProt Q9BRD0: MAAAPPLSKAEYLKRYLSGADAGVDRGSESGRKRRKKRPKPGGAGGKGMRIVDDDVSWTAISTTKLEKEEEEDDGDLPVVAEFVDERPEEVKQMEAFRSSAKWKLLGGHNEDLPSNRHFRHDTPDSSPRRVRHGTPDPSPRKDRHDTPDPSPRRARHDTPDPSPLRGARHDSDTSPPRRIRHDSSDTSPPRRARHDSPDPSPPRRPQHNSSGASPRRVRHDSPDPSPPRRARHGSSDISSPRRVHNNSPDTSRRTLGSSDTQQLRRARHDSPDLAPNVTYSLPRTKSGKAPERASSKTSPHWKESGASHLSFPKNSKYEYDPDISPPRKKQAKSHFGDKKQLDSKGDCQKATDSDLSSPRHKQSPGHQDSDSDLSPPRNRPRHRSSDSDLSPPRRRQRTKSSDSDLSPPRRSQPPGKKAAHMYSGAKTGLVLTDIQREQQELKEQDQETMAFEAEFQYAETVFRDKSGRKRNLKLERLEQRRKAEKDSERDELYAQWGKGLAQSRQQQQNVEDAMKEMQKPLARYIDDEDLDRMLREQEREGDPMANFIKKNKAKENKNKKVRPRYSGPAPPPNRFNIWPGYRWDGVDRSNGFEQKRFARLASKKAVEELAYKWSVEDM
UniProt Q9BTY7: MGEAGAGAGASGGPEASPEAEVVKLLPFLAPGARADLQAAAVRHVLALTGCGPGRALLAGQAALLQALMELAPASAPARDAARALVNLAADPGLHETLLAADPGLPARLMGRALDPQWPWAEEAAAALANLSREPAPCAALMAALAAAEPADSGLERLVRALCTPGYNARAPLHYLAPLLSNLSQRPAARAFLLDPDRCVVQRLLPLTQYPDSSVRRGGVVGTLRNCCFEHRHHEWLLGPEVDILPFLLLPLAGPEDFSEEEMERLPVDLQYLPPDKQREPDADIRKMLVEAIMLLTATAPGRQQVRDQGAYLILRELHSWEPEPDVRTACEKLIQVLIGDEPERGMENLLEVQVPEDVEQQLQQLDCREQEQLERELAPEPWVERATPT
UniProt Q9BXP5: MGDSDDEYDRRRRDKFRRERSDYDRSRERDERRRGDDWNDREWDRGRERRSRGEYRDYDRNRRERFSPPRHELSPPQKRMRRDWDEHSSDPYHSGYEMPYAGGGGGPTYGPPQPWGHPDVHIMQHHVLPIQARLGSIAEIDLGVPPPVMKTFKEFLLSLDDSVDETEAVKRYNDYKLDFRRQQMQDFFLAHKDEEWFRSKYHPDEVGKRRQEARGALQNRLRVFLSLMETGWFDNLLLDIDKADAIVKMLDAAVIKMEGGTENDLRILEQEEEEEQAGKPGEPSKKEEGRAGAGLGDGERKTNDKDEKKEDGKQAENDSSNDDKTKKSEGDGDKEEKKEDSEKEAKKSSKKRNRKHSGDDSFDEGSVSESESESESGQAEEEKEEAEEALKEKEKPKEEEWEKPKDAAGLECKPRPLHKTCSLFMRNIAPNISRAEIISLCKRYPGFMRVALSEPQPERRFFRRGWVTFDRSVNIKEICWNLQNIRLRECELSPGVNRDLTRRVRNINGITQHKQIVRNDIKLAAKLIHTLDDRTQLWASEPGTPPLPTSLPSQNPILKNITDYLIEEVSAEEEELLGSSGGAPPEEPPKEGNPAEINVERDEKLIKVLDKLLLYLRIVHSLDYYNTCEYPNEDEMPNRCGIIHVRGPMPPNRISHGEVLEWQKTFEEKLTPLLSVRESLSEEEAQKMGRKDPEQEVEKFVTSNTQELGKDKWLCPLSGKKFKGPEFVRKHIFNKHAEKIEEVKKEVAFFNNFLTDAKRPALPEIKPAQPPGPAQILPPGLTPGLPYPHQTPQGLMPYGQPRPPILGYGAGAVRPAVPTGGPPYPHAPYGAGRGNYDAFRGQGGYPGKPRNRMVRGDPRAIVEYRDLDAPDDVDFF
UniProt Q9BSH5: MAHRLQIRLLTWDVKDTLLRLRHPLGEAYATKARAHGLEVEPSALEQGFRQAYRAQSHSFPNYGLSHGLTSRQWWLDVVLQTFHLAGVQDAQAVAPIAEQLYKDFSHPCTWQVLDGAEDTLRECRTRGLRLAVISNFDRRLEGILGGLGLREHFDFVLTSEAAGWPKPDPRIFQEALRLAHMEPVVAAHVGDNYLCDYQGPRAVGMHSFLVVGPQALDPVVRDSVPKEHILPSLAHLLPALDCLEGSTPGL
UniProt Q99797: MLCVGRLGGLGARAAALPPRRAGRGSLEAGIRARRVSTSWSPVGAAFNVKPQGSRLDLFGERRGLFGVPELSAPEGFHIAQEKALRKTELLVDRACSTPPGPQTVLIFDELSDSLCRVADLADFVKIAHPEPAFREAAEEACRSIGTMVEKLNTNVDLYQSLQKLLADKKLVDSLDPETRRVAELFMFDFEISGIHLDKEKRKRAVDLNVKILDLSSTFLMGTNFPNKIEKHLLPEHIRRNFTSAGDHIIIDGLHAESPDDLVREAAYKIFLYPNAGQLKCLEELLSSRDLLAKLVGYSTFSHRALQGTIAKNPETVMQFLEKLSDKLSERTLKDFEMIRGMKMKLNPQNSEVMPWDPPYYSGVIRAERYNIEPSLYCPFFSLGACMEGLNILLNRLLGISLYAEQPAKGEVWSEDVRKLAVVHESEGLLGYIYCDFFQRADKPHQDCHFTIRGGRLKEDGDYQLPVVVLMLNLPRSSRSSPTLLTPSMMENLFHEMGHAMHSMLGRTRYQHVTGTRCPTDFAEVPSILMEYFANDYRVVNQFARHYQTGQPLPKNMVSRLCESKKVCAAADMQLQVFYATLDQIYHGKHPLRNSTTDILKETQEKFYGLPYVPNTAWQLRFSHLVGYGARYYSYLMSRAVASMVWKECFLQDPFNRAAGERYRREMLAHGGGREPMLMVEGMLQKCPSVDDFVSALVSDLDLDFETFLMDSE

Compound: Nc1nc2c(ncn2[C@@H]2O[C@H](COP(=O)(O)OP(=O)(O)OP(=O)(O)O)[C@@H](O)[C@H]2O)c(=O)[nH]1 [guanosine triphosphate]
Assay: NP40-soluble protein abundance relative to vehicle (solubility fold change) (ratio); higher = more soluble protein in presence of GTP
Summary of the method: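 Jurkat crude lysate prepared with a Dounce homogeniser was treated at eight concentrations spanning 0.1 to 10 mM, 10 min at room temperature then 3 min at 37 °C. Solubilisation with 0.8% NP40 and benzonase and ultracentrifugation preceded TMT labelling of the supernatant for LC-MS/MS. Fold change against the detergent-processed vehicle was determined per replicate from vsn-normalised intensities, across three independent experiments.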

Row | Target | NP40-soluble protein abundance (concentration: 0.1mM) | NP40-soluble protein abundance (concentration: 0.5mM) | NP40-soluble protein abundance (concentration: 1mM) | NP40-soluble protein abundance (concentration: 2mM) | NP40-soluble protein abundance (concentration: 4mM) | NP40-soluble protein abundance (concentration: 6mM) | NP40-soluble protein abundance (concentration: 8mM) | NP40-soluble protein abundance (concentration: 10mM)
1 | UIMC1 (UniProt Q96RL1) | 1.02 ± 0.018 | 0.995 ± 0.013 | 1.01 ± 0.031 | 0.989 ± 0.015 | 1.03 ± 0.03 | 1.06 ± 0.048 | 1.04 ± 0.087 | 1.05 ± 0.075
2 | UniProt Q96T76 and related entries | 1.03 ± 0.026 | 1.02 ± 0.12 | 1.03 ± 0.017 | 1.01 ± 0.071 | 0.952 ± 0.11 | 0.982 ± 0.045 | 0.988 ± 0.055 | 0.99 ± 0.13
3 | C1orf50 (UniProt Q9BV19) | 0.989 ± 0.024 | 0.998 ± 0.061 | 1.02 ± 0.029 | 1.04 ± 0.087 | 0.968 ± 0.049 | 0.959 ± 0.084 | 1.02 ± 0.11 | 0.988 ± 0.04
4 | UniProt Q96N64 and related entries | 1.01 ± 0.059 | 0.977 ± 0.13 | 1.04 ± 0.068 | 1.08 ± 0.096 | 1.12 ± 0.15 | 1.12 ± 0.12 | 1.19 ± 0.13 | 1.3 ± 0.15
5 | UniProt Q9BVP2 and related entries | 1.31 ± 0.073 | 1.3 ± 0.094 | 1.34 ± 0.11 | 1.51 ± 0.19 | 1.68 ± 0.17 | 1.73 ± 0.13 | 1.77 ± 0.2 | 1.88 ± 0.072
6 | UniProt Q9BXJ9 and related entries | 1.03 ± 0.021 | 1.06 ± 0.018 | 0.972 ± 0.039 | 0.984 ± 0.026 | 0.982 ± 0.036 | 0.9782 ± 0.0082 | 0.955 ± 0.051 | 0.941 ± 0.065
7 | CRAMP1 (UniProt Q96RY5) | 1.19 ± 0.12 | 1.07 ± 0.047 | 1.13 ± 0.04 | 1.04 ± 0.13 | 1.12 ± 0.16 | 1.21 ± 0.24 | 1.35 ± 0.32 | 1.29 ± 0.36
8 | TM9SF2 (UniProt Q99805) | 1.08 ± 0.11 | 1.09 ± 0.15 | 0.972 ± 0.1 | 0.99 ± 0.12 | 0.965 ± 0.14 | 0.94 ± 0.11 | 0.91 ± 0.048 | 0.903 ± 0.085
9 | UniProt Q9BV73 and related entries | 1.09 ± 0.063 | 1.04 ± 0.08 | 1.09 ± 0.07 | 1.13 ± 0.074 | 1.12 ± 0.036 | 1.06 ± 0.029 | 1.08 ± 0.061 | 1.16 ± 0.021
10 | RIOK1 (UniProt Q9BRS2) | 1.11 ± 0.025 | 1.1 ± 0.043 | 1.147 ± 0.0086 | 1.18 ± 0.057 | 1.27 ± 0.079 | 1.25 ± 0.11 | 1.26 ± 0.077 | 1.31 ± 0.17
11 | UBAC1 (UniProt Q9BSL1) | 1.01 ± 0.039 | 0.975 ± 0.036 | 0.928 ± 0.063 | 0.976 ± 0.025 | 1.03 ± 0.029 | 0.965 ± 0.034 | 0.945 ± 0.049 | 0.999 ± 0.071
12 | UniProt Q96ST2 and related entries | 1.06 ± 0.091 | 0.966 ± 0.044 | 1.07 ± 0.084 | 0.97 ± 0.096 | 1.01 ± 0.11 | 0.907 ± 0.077 | 0.993 ± 0.14 | 0.889 ± 0.091
13 | ARPC5L (UniProt Q9BPX5) | 0.926 ± 0.053 | 0.915 ± 0.05 | 1.1 ± 0.17 | 1.11 ± 0.11 | 1.09 ± 0.1 | 1.08 ± 0.076 | 1.02 ± 0.11 | 1.13 ± 0.15
14 | PDCD2L (UniProt Q9BRP1) | 0.98 ± 0.055 | 0.965 ± 0.083 | 0.932 ± 0.072 | 0.964 ± 0.082 | 0.939 ± 0.12 | 0.96 ± 0.034 | 0.951 ± 0.12 | 0.974 ± 0.041
15 | BUD13 (UniProt Q9BRD0) | 1.1 ± 0.024 | 0.995 ± 0.057 | 1.14 ± 0.03 | 1.15 ± 0.11 | 1.12 ± 0.071 | 1.18 ± 0.12 | 1.193 ± 0.0098 | 1.27 ± 0.15
16 | UniProt Q9BU76 and related entries | 1.14 ± 0.13 | 1.1 ± 0.068 | 1.09 ± 0.085 | 1.13 ± 0.077 | 1.14 ± 0.012 | 1.1 ± 0.049 | 1.25 ± 0.16 | 1.24 ± 0.11
17 | UniProt Q9BTY7 | 0.967 ± 0.086 | 0.856 ± 0.056 | 1.07 ± 0.088 | 1.05 ± 0.033 | 1.03 ± 0.082 | 0.998 ± 0.049 | 0.924 ± 0.18 | 1.03 ± 0.14
18 | UniProt Q96LW7-2 | 0.899 ± 0.12 | 1.06 ± 0.11 | 1.04 ± 0.2 | 1.11 ± 0.12 | 1.14 ± 0.16 | 1.12 ± 0.096 | 0.965 ± 0.17 | 1.08 ± 0.15
19 | MRPS26 (UniProt Q9BYN8) | 1.07 ± 0.13 | 1.11 ± 0.11 | 1.31 ± 0.29 | 1.44 ± 0.33 | 1.42 ± 0.45 | 1.33 ± 0.3 | 1.22 ± 0.3 | 1.33 ± 0.42
20 | UniProt Q9BY44 and related entries | 0.971 ± 0.031 | 0.982 ± 0.051 | 0.928 ± 0.057 | 0.898 ± 0.059 | 0.903 ± 0.066 | 0.909 ± 0.07 | 0.912 ± 0.063 | 0.88 ± 0.09
21 | UniProt Q99653 | 0.94 ± 0.016 | 0.937 ± 0.036 | 0.921 ± 0.076 | 0.945 ± 0.018 | 0.982 ± 0.023 | 0.929 ± 0.043 | 0.9 ± 0.039 | 0.913 ± 0.016
22 | UniProt Q9BXP5 and related entries | 0.96 ± 0.061 | 0.998 ± 0.059 | 1.04 ± 0.048 | 1.04 ± 0.081 | 1.1 ± 0.09 | 1.12 ± 0.09 | 1.18 ± 0.15 | 1.16 ± 0.15
23 | SPATA5L1 (UniProt Q9BVQ7) | 1.16 ± 0.12 | 1.16 ± 0.14 | 1.23 ± 0.13 | 1.36 ± 0.12 | 1.41 ± 0.087 | 1.41 ± 0.066 | 1.42 ± 0.016 | 1.4 ± 0.084
24 | HDHD3 (UniProt Q9BSH5) | 0.988 ± 0.073 | 1.01 ± 0.045 | 0.985 ± 0.14 | 0.95 ± 0.078 | 0.941 ± 0.069 | 0.937 ± 0.033 | 0.917 ± 0.1 | 0.885 ± 0.084
25 | ZNF512B (UniProt Q96KM6) | 0.97 ± 0.047 | 1.02 ± 0.028 | 1.08 ± 0.066 | 1.08 ± 0.07 | 1.07 ± 0.04 | 1.11 ± 0.069 | 1.11 ± 0.085 | 1.2 ± 0.066
26 | PTDSS2 (UniProt Q9BVG9) | 1.05 ± 0.05 | 1.08 ± 0.063 | 0.963 ± 0.062 | 0.976 ± 0.034 | 0.964 ± 0.054 | 0.97 ± 0.085 | 0.976 ± 0.095 | 0.978 ± 0.083
27 | MIPEP (UniProt Q99797) | 1.01 ± 0.021 | 1.02 ± 0.03 | 0.928 ± 0.018 | 0.911 ± 0.029 | 0.912 ± 0.011 | 0.903 ± 0.043 | 0.868 ± 0.03 | 0.881 ± 0.049
28 | UniProt Q9BRR6 and related entries | 1.15 ± 0.16 | 0.951 ± 0.052 | 1.11 ± 0.19 | 1.04 ± 0.11 | 1.06 ± 0.04 | 1.03 ± 0.17 | 1.05 ± 0.053 | 1.04 ± 0.033
29 | UniProt Q99490-2 | 1 ± 0.18 | 0.983 ± 0.12 | 0.965 ± 0.14 | 0.96 ± 0.1 | 0.963 ± 0.12 | 0.938 ± 0.082 | 0.945 ± 0.15 | 0.926 ± 0.12
30 | UniProt Q96L91 and related entries | 1.03 ± 0.021 | 1.06 ± 0.04 | 1.12 ± 0.03 | 1.18 ± 0.061 | 1.24 ± 0.13 | 1.26 ± 0.14 | 1.32 ± 0.22 | 1.34 ± 0.23

Full records, quoted from the list. Values in the order: NP40-soluble protein abundance (concentration: 0.1mM)	NP40-soluble protein abundance (concentration: 0.5mM)	NP40-soluble protein abundance (concentration: 1mM)	NP40-soluble protein abundance (concentration: 2mM)	NP40-soluble protein abundance (concentration: 4mM)	NP40-soluble protein abundance (concentration: 6mM)	NP40-soluble protein abundance (concentration: 8mM)	NP40-soluble protein abundance (concentration: 10mM)
CRAMP1 (UniProt Q96RY5) is entered as 1.19 ± 0.12	1.07 ± 0.047	1.13 ± 0.04	1.04 ± 0.13	1.12 ± 0.16	1.21 ± 0.24	1.35 ± 0.32	1.29 ± 0.36
ARPC5L (UniProt Q9BPX5) is entered as 0.926 ± 0.053	0.915 ± 0.05	1.1 ± 0.17	1.11 ± 0.11	1.09 ± 0.1	1.08 ± 0.076	1.02 ± 0.11	1.13 ± 0.15
